The target of this test is GltB (endogenous, P. aeruginosa PAO1) (P. aeruginosa PAO1 (endogenous in PAO1)). Briefly: co-IP; lysate of PAO1/p-gtrS-YFP (ΔgltB/p-gtrS-YFP as negative control), cells 1 min in M8 medium with 10 mM glucose; resin with rabbit anti-GltB polyclonal antibody, overnight 4 °C; western blot. (In general: A western blot detects proteins with antibodies after separation by electrophoresis.)

This note sets out measurements from PMC7927077, “Glucose-Binding of Periplasmic Protein GltB Activates GtrS-GltR Two-Component System in Pseudomonas aeruginosa” (Microorganisms, 2021).

These are yes or no findings as the source states them, for the method shown. In cells and extracts the contact can be indirect. Binding can be weak; no strength is given. Sequences can lack the tags named with a protein.

B1: yellow fluorescent protein (YFP)-tagged GtrS (GtrS-YFP) (protein, UniProt Q9HZ47 1-473)
chain: MPRSLLGRMLLLTLLAVLVAQGLSSLFWLSHLRSSQREGLLTSSRSLAYSMAASVSYFRSLPLGYRPLVLDQLRSMGGTRFFVSLNDRPLEMRALPDTPNKQAVLEIVQDVLHQRLGKEVELQVEFVSPDELRLFNGALKLDELPRSWAHYALTLEPVNPPVLVTQIRIGESEWLYIASLMPAPYVSLEPEGLQPQQVLSIVFTSLLLLLFTGLLMHWQSRPLKRLARAARDLALGSPSAALEERGASELVEVARAFNTMHERIDRYLNERGQLFSAISHDLRTPITRLRLRVELLEDERLQEKFGRDLDELELLVKGALQCVKDTDIHENVESVDLNLLLQHIAEPYLADGRVEVVGRAAEPYPGKPLALKRCIGNLLDNALKYGERARLSLEDGPEAVVLHVDDDGPGVPEQRLEQIFEPRFRLSPRGQGYGLGLGIARNIAHTHGGEVSLQNRREGGLRVSLRLPRLGLE
On to B1, for which the binding entry is “binds”.
